# PubChem BioAssay AID1347076 (National Center for Advancing Translational Sciences (NCATS), 2019)
# Screen size: about 400,000 compounds; about 13,000 (3.2%) were called active. Inconclusive means that the source gave no clear call. Such entries were picked first, then a sample of the others. The call rests on the fitted dose curve; in most records, active means well fitted cell-killing curve with a large enough effect; inconclusive means small, poorly fitted or top-dose-only effect, or effect the other way; inactive means flat fitted curve, though single readings scatter. Potencies of inconclusive entries are doubtful fits and often do not repeat.
# Experiment: qHTS assay for MDR1-selective chemotherapeutics: Primary screen using the drug-selected MDR subline cells KB-V1; further: nearly all actives have a fitted effect of over 60% in size
# Settings: KB-V1 MDR cells viability, CellTiter-Glo, 72 h; series mostly up to 46.1 µM
# From the text: A prime difficulty in effectively treating cancer is the development of cellular resistance to multiple structurally unrelated anticancer drugs, a phenomenon known as multidrug resistance (MDR). […] Numerous strategies to overcome P-gp-mediated MDR have been explored, including the design of drugs that evade recognition and efflux, and development of inhibitors to block efflux and restore drug accumulation. […] An alternative approach is to exploit resistance by identifying drugs that target MDR cells over the non-resistant parental cells from which they were selected. […] The development of MDR1-selective agents represents a new strategy for resolving multidrug resistance, as it remains a long-standing clinical challenge for cancer chemotherapy.
# Our goal is to identify compounds that selectively kill P-gp-expressing MDR cells. We will identify MDR1-selective compounds by comparing toxicity of compounds in the screening library against parental, drug-naive (KB-3-1) adenocarcinoma cells as well as their drug-selected MDR sub-line (KB-V1). The differential toxicity of compounds against these two cell lines will be used to identify MDR1-selective compounds, whose cytotoxicity is potentiated, rather than diminished, by P-gp expression. This assay will be utilized to conduct a quantitative high-throughput screen (qHTS) in collaboration with the NIH Chemical Genomics Center to identify selective agents, and probe hits arising from the screen will be validated using secondary assays and characterized through a well-established follow-up research program. This screen was run against the entire NCGC library collection of about 400,000 compounds.
# NIH Molecular Libraries Probe Production Network [MLPCN]
# NIH Chemical Genomics Center [NCGC]
# PI: Michael Gottesman, National Cancer Institute, NIH
# Briefly, 5 microL of media containing either KB-V1 cells (columns 1-2, 4-48) are dispensed into Greiner white, treated solid-bottom 1536-well assay plates (media-only control is added to column 3). Compounds are then transferred via Kalypsys pin tool equipped with 1536-pin array (10 nL slotted pins, V&P Scientific, San Diego, CA). Following addition of compound, the plates are incubated at 37 degrees C for 72 hours. CellTiter-Glo (2.5 µL/well) is then added, and the plates are read in a ViewLux reader (Perkin-Elmer, clear luminescence filter, 1 second exposure, 1x binning) following a 10 minute incubation. All cells are dispensed in DMEM phenol-red free media containing 10% FBS.
# Library plates were screened starting from the lowest and proceeding to the highest concentration. Vehicle-only plates, with DMSO being pin-transferred to columns 5-48, will be inserted uniformly at the beginning and the end of each library in order to monitor and record any shifts in the background, which can be affected by reagent dispensers or loss in enzyme activity over time. Screening data will be corrected, normalized, and concentration-effect relationships will be derived by using publicly-available NCGC, NCATS curve fitting algorithms (http://ncgc.nih.gov/pub/openhts).
# Potency means the concentration at half of the fitted maximal effect.
row,Compound,Potency
1,CC1CN1P(=O)(Oc1ccccc1)N1CC1C (configuration not stated),"inconclusive: 6.51 µM [rising, partial curve, poor fit]"
2,CCOP(=O)(OCC)C(NC(=O)C(C)C)C(Cl)(Cl)Cl (configuration not stated),inactive
3,CCOC(=O)c1c(C)n(Cc2ccccc2)c2ccc(OCC(O)Cn3nc(C)cc3C)cc12 (configuration not stated),inactive
4,O=C(N/N=C/c1c(O)n(Cc2ccccc2)c(=O)[nH]c1=O)c1ccccc1O,inactive
5,CC(C)Oc1cc(-n2c(=S)[nH]c3ccccc3c2=O)c(Cl)cc1Cl,active: 23.1 µM
6,CCCCCn1c(=O)c(C(=O)Nc2ccccc2S(N)(=O)=O)c(O)c2ccccc21,"inconclusive: 3.66 µM [cytotoxic, partial curve, poor fit]"
7,Clc1ccc(CSC(Cn2ccnc2)c2ccc(Cl)cc2Cl)cc1 (configuration not stated),"inconclusive: 23.1 µM [cytotoxic, single point]"
8,C=CCN1C(=O)/C(=C/c2cc(C)n(-c3cccnc3)c2C)C(=O)NC1=S,"inconclusive: 20.6 µM [cytotoxic, single point]"
9,C[C@]12CC[C@H](O)C[C@H]1CC[C@@H]1C2CC[C@]2(C)[C@@H](C3=CC(=O)OC3)[C@@H](O)C[C@]12O (some centres not stated),active: 6.51 µM
10,CCC(C)C1NC(=O)C(NC(=O)C(CC(C)C)N(C)C(=O)C2CCCN2C(=O)C(C)O)C(C)OC(=O)C(Cc2ccc(OC)cc2)N(C)C(=O)C2CCCN2C(=O)C(CC(C)C)NC(=O)[C@H](C)C(=O)[C@H](C(C)C)OC(=O)CC1O (some centres not stated),active: 8.2 µM
11,CN1CCN(c2ccc([N+](=O)[O-])c3no[n+]([O-])c23)CC1,"inconclusive: 29.1 µM [cytotoxic, partial curve, poor fit]"
12,COC(=O)Nc1nc2ccccc2[nH]1,active: 3.66 µM
13,CC(=O)c1cc(C#N)c(N2CCN(C)CC2)nc1C,inactive
14,CCN(CC)C(=O)c1ccc(NC(=O)c2cccc(S(=O)(=O)N3CCN(Cc4ccccc4)CC3)c2)cc1,"inconclusive: 7.31 µM [cytotoxic, partial curve]"
15,O=C(Cc1ccccc1)OCCN1CCCCC1,inactive
16,CC12CCC3C(CCC4(O)CC(O)CCC34C=O)C1(O)CCC2C1=CC(=O)OC1 (configuration not stated),"inconclusive: 0.461 µM [cytotoxic, full curve, poor fit]"
17,C#C[C@]1(O)CC[C@H]2[C@@H]3CCC4=Cc5nc6nc7ccccc7n6cc5C[C@]4(C)[C@H]3CC[C@@]21C,"inconclusive: 2.91 µM [cytotoxic, partial curve]"
18,COC(=O)C1=C(c2ccccc2)C[C@@H]2CC[C@H]1N2C(=O)N1CCOCC1,inactive
19,COc1ccc(OCC(=O)N2CCN(Cc3nc4cc([N+](=O)[O-])ccc4n3C)CC2)cc1,inactive
20,CCC(=NCc1ccc(F)cc1)c1c(O)n(C)c(=O)n(C)c1=O,active: 14.6 µM
21,O=[N+]([O-])c1cc(F)c(N2CCCCCC2)cc1N1CCNCC1,"inconclusive: 32.6 µM [cytotoxic, partial curve, poor fit]"
22,CCOP(=O)(OCC)Oc1cc(C)c(N(C)C)c(C)c1,inactive
23,CCC(c1nnnn1-c1ccc2c(c1)OCCO2)N1CCC2(CC1)C(=O)NCN2c1ccccc1 (configuration not stated),inactive
24,CCOC(=O)[C@]12Cc3ccccc3[C@H]1N(Cc1ccccc1)C(=O)c1cc(F)c(F)cc12,active: 10.3 µM

row,Compound,Potency
1,CN(C)C(=O)Oc1ccc(OC(=O)N(C)C)cc1,inactive
2,CC(C)C(=O)c1cn(Cc2ccccc2C#N)c2ccccc12,"inconclusive: 8.2 µM [cytotoxic, partial curve]"
3,c1ccc2nc(N3CCNCC3)ccc2c1,"inconclusive: 11.6 µM [cytotoxic, partial curve, poor fit]"
4,COC(=O)C1=C(C(=O)OC)C2c3ccccc3C1c1ccccc12,active: 14.6 µM
5,COC(=O)c1ccc(NC(=O)c2cccn(Cc3ccccc3C)c2=O)cc1,"inconclusive: 29.1 µM [rising, single point]"
6,COC(=O)C1=C(c2ccc(-c3ccccc3)c(F)c2)C[C@@H]2CC[C@H]1N2C(=O)NCCc1ccccc1,"inconclusive: 29.1 µM [cytotoxic, single point]"
7,Cc1cc(OCc2nn[nH]n2)c2c3c(c(=O)oc2c1)CCC3,"inconclusive: 13 µM [rising, partial curve, poor fit]"
8,CCC(CO)Nc1ccc([N+](=O)[O-])c2cccnc12 (configuration not stated),active: 18.4 µM
9,COc1ccc(OC(=O)N(C)C[C@@H]2OCc3cnnn3CCCC(=O)N([C@H](C)CO)C[C@@H]2C)cc1,"inconclusive: 29.1 µM [rising, partial curve, poor fit]"
10,CC(=O)OCC12CC(OC(=O)CC(C)C)C(C)=CC1OC1C(O)C(OC(C)=O)C2(C)C12CO2 (configuration not stated),"inconclusive: 0.0116 µM [cytotoxic, full curve, poor fit]"
11,Cc1sc2c(c1C)C(c1cccs1)=NCC(=O)N2CC(=O)NCc1cccs1,"inconclusive: 29.1 µM [cytotoxic, single point]"
12,O=c1[nH]cnc2nc(-c3ccc(N(CCCl)CCCl)cc3)[nH]c12,"inconclusive: 16.4 µM [cytotoxic, partial curve]"
13,COc1ccccc1N1CCN(Cc2cc(C)c(C)cc2O)CC1,"inconclusive: 9.2 µM [cytotoxic, partial curve, poor fit]"
14,O=C1NCN(c2ccccc2)C12CCN(C(CCc1ccccc1)c1nnnn1Cc1ccccc1)CC2 (configuration not stated),"inconclusive: 29.1 µM [cytotoxic, single point]"
15,C[C@H](O)[C@H]1CC[C@H]2[C@@H]3CCC4=CC(=O)CC[C@]4(C)[C@H]3CC[C@]12C,active: 14.6 µM
16,COC(=O)C1=C(c2c(C)noc2C)C[C@@H]2CC[C@H]1N2C(=O)N1CCCC1,"inconclusive: 29.1 µM [rising, single point]"
17,CNCCc1nc(N)n[nH]1,inactive
18,CCC1(CC)C(=O)NC(=NCCc2c[nH]c3ccccc23)NC1=O,inactive
19,Cc1ccccc1C(=O)N1Cc2cnnn2-c2ccccc2C1C#N (configuration not stated),inactive
20,O=P(Nc1cccnc1)(Oc1ccccc1)Oc1ccccc1,inactive
21,N#CC1C(C#N)C2CCC1C1C2N1c1ccccc1 (configuration not stated),inactive
22,COc1ccccc1-n1c(Cc2ccccc2)nc2ccccc2c1=O,"inconclusive: 32.6 µM [cytotoxic, single point]"
23,CCN(CC)S(=O)(=O)c1cc(NC(=O)C(C)N2CC=C(c3ccccc3)CC2)ccc1C (configuration not stated),active: 16.4 µM
24,Cc1nn(Cc2ccccc2Cl)c(C)c1C(=O)OCC(=O)NC1CCS(=O)(=O)C1 (configuration not stated),"inconclusive: 18.4 µM [cytotoxic, partial curve, poor fit]"

row,Compound,Potency
1,Cc1ccc(OCC(=O)N2CCN(C3CCC(c4ccccc4)CC3)CC2)cc1 (configuration not stated),"inconclusive: 11.6 µM [cytotoxic, partial curve]"
2,Oc1cc2c(cc1CN1CCN(c3ccccc3)CC1)CCC2,"inconclusive: 18.4 µM [cytotoxic, single point]"
3,O=C(N/N=C/c1c(O)n(Cc2ccc(F)cc2)c(=O)[nH]c1=O)c1ccccc1O,inactive
4,COc1cc2c(cc1OC)C(C1c3cc4c(cc3CCN1C)OCO4)OC2=O (configuration not stated),inactive
5,CCOC(=O)C(O)(c1ccc(N(CC)C(=O)OC)cc1)C(F)(F)F (configuration not stated),active: 20.6 µM
6,CSc1nc(N2CCN(C)CC2)c2ccccc2n1,inactive
7,CCC/C(=N\O)c1c[nH]c2ccccc12,"inconclusive: 18.4 µM [cytotoxic, single point]"
8,CC1(O)CCC2C3CCC4=CC(=O)CCC4=C3C=CC21C (configuration not stated),active: 9.2 µM
9,CCN1C(=O)CC(c2cccnc2)=Nc2ccccc21,"inconclusive: 32.6 µM [rising, single point]"
10,CCN1CCN(c2cc(N3CCCC3)c(F)cc2[N+](=O)[O-])CC1,"inconclusive: 8.2 µM [cytotoxic, partial curve]"
11,COc1ccc(OC)c(-n2c(O)c(C=Nc3c(C)n(C)n(-c4ccccc4)c3=O)c(=O)[nH]c2=O)c1,inactive
12,CCOC(=O)CNC(=O)N1Cc2cc(N3CCOCC3)ccc2-n2nncc2C1,inactive
13,CC(=O)Cc1c[nH]c2ccccc12,inactive
14,Cc1cc(OC(C)C(=O)N[C@H](C(=O)O)c2ccccc2)c2c3c(c(=O)oc2c1)CCC3 (some centres not stated),inactive
15,COc1nc(C)nc(NC(=O)NS(=O)(=O)c2ccccc2Cl)n1,inactive
16,CCn1cc(C(=O)c2ccccc2)c2ccccc21,"inconclusive: 18.4 µM [cytotoxic, single point]"
17,Cc1ccc(-c2nn(CCC#N)cc2C(=O)O)cc1C,"inconclusive: 18.4 µM [rising, single point]"
18,Cc1c(C(=O)c2cccc3ccccc23)c2cccc3c2n1[C@H](CN1CCOCC1)CO3,"inconclusive: 14.6 µM [cytotoxic, partial curve, poor fit]"
19,O=C(COc1ccccc1Cl)N1CCCC(N2CCN(c3ccc(F)cc3)CC2)C1 (configuration not stated),"inconclusive: 0.0461 µM [cytotoxic, full curve]"
20,O=C(CN1CCCC1)Nc1ccc(Cl)cc1C(=O)c1ccccc1,"inconclusive: 18.4 µM [cytotoxic, single point]"
21,Cc1ccc(OCC(=O)Nc2ccc(Cl)cc2C(=O)c2ccccc2)cc1,"inconclusive: 29.1 µM [cytotoxic, single point]"
22,CC(C)CC(NC(=O)C1CCCCC1)C(=O)N1CCC2(CC1)OCCO2 (configuration not stated),active: 10.3 µM
23,COc1cc(/C=C/c2nc3ccccc3c(=O)n2-c2cccc(O)c2)ccc1O,"inconclusive: 7.31 µM [cytotoxic, partial curve, poor fit]"
24,COC(=O)C1=C(c2ccc(F)cc2OCc2ccccc2)C[C@@H]2CC[C@H]1N2C(=O)NC1CCN(Cc2ccccc2)CC1,"inconclusive: 29.1 µM [cytotoxic, single point]"

# Three of the compounds above, bar-delimited.
row | Compound | Potency
4 | COc1cc2c(cc1OC)C(C1c3cc4c(cc3CCN1C)OCO4)OC2=O (configuration not stated) | inactive
5 | CCOC(=O)C(O)(c1ccc(N(CC)C(=O)OC)cc1)C(F)(F)F (configuration not stated) | active: 20.6 µM
6 | CSc1nc(N2CCN(C)CC2)c2ccccc2n1 | inactive
